Test results reported in paper PMC12040651, “cAMP-independent Crp homolog adds to the multi-layer regulatory network in Porphyromonas gingivalis”.
For at least one entry, the source does not settle the construct or the ends of the probe. At least one verdict was read from the data and is not stated in words by the source. Where a protein sequence is shown, tags need not be part of it.

Molecular target: T1, CrpPg (Crp homolog) (Porphyromonas gingivalis A7436) (UniProt Q7MAW7)
T1 sequence (looked up, limits assumed): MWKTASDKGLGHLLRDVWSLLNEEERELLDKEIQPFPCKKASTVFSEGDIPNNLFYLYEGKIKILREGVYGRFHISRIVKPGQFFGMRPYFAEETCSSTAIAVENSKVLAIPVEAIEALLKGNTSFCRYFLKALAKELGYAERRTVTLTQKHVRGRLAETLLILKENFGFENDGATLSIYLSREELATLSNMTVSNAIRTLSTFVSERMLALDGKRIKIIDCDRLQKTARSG
Test: EMSA
Conditions: recombinant protein, protein details: 6xHis-MBP N-terminal, removed with Factor Xa, letters put together from the description

Sequence	binding result (label: 5' biotin via PBM_0263)	binding result (label: 5' biotin via PBM_0209)
TATTTTTTACTGATTTCCGGATAAGTAACCTCCTTATTTTGTGGTTATTCCGACTTTCAGACTTATTTTTGCAATATACAAGGATGGAAGATATTGATAGAGAAGCACTTTCCCCTCGATTCTTCGCCGGATCTCATAATAATAGTTCTACGGCCTTTCTTCCTCGTTGTACGGATTTGAGCAAATAGACATTCTCTGAACACTTATATGTGGAAGACAGCTTCGGATAAAGGATTGGGACACTTGCTTAGAGATGTTTGGTCT (double strand) [crpPg full promoter (fragments 1-5)]	binds	
AGCTGTTCAGGTGAAGTTCATGCAGAATAGTGTGCAAGAGTATAGAATTGTAGAGATTATGGGTTCGGATATGTGATAACGAGGATTCATCGTTAAGTTTATCCGGTTTTATAGTCTTGAGCGTTTTGTGTTTTATAGTCTTTCTTTCGACGTTTTTAGAATCAATTTAATATTAATCCTTTTAAACATTTGGCTTATGAAGTTAAACAAAATGTTTTTGGTCGGAGCATTGCTCTCATTGGGCT (double strand) [mfa full promoter (fragments 1-5)]		binds
